Measured values from PubChem BioAssay AID504444 (National Center for Advancing Translational Sciences (NCATS), 2011).
Screen size: about 360,000 compounds; about 7,500 (2.1%) were called active. The shares of active, inactive and inconclusive entries below differ from those in the screen. Calls follow the shape of the dose curve; as a rule, active = well fitted inhibition curve with a large enough effect; inconclusive = small, poorly fitted or top-dose-only effect, or effect the other way; inactive = flat fitted curve, though single readings scatter. Where the call is inconclusive, the potency comes from a doubtful curve fit.

Experiment: Nrf2 qHTS screen for inhibitors; also: nearly all actives have a fitted effect of over 60% in size
Details: A549 ARE-Fluc reporter, luciferase luminescence, 18-24 h; activity change, negative = inhibition: at 46 µM (top of the series)
How it was run: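 Nrf2 function is reported as luminescence of an ARE-controlled luciferase in A549 cells. Compounds were tested at several concentrations, and a CellTiter-Fluor read on the same wells flagged cytotoxicity.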
% is scaled to controls: 0 for no effect and ±100 for the full control effect; potency is read from the fitted curve at half-maximal effect.

Row | SMILES | activity change, negative = inhibition | Potency
1 | O=C(NC1CCSc2ccccc21)c1cc([N+](=O)[O-])ccc1N1CCOCC1 (centres undefined) | inactive: -11.4% | 
2 | O=C(NNC(=O)c1cccs1)c1ccc(Cl)c(S(=O)(=O)N2CCCC2)c1 |  | inconclusive: 18.4 µM [falling, single point]
3 | Cc1cccc(C(=O)NC2CCCCCCC2)c1 |  | inconclusive: 23.1 µM [activator, single point]
4 | Nc1nc2ccccc2n1/N=C/c1ccc2c(c1)OCO2 |  | inconclusive: 6.51 µM [activator, partial curve]
5 | O=C(CSc1nnc(-c2ccc(F)cc2)o1)Nc1ccc(S(=O)(=O)N2CCCCCC2)cc1 |  | inconclusive: 20.6 µM [falling, partial curve, poor fit]
6 | CN(Cc1ccccc1)c1ncnc2onc(-c3ccc(F)cc3)c12 |  | inconclusive: 0.326 µM [falling, partial curve, poor fit]
7 | CCc1ccccc1S(=O)(=O)Cc1ccc(C(=O)N2CCN(c3ccccn3)CC2)o1 |  | inconclusive: 0.0058 µM [activator, full curve, poor fit]
8 | CC1Cc2cc(S(=O)(=O)NCc3ccccc3)ccc2N1C(=O)C1CC1 (centres undefined) |  | inconclusive: 20.6 µM [falling, single point]
9 | O=C(CSc1nc2cc(Cl)ccc2s1)Nc1cccc(S(=O)(=O)N2CCOCC2)c1 |  | active: 23.1 µM
10 | CCn1c(SCC(=O)N2CCN(c3ccccc3F)CC2)nnc1-c1ccoc1C |  | inconclusive: 32.6 µM [falling, partial curve, poor fit]
11 | Cc1cc(C)c(NC(=O)C2CCN(c3nnc(C)c4c(C)n(-c5ccccc5)nc34)CC2)c(C)c1 |  | inconclusive: 18.4 µM [activator, partial curve]
12 | COc1ccccc1NC(=O)C1=C(C)Nc2nc(SCc3ccccc3C)nn2C1CC(C)C (centres undefined) | inactive: -15.9% | 
13 | COc1cccc(C2=CC(c3cccc(OC)c3OC)n3nnnc3N2)c1 (centres undefined) |  | inconclusive: 8.2 µM [falling, partial curve, poor fit]
14 | Cc1cc(-c2ccccc2)n(-c2ccccc2)n1 |  | inconclusive: 20.6 µM [activator, single point]
15 | CCS(=O)(=O)c1cc([N+](=O)[O-])c(Sc2ccccc2NC(C)=O)s1 |  | inconclusive: 18.4 µM [falling, partial curve, poor fit]
16 | COc1cccc(C(=O)/C=C2\Sc3ccccc3N2C)c1 |  | inconclusive: 8.2 µM [activator, partial curve]
17 | O=C(N/N=C/c1ccco1)c1ccccc1OCc1ccc(Br)cc1 |  | inconclusive: 18.4 µM [activator, partial curve, poor fit]
18 | O=C(Nc1ccc(-c2nc3cc(Cl)ccc3o2)cc1)C1CCCO1 (centres undefined) |  | inconclusive: 0.411 µM [activator, full curve, poor fit]
19 | Cc1c(C(=S)Nc2ccccc2)cnn1-c1ccc([N+](=O)[O-])cc1 |  | active: 23.1 µM
20 | CN(CC(=O)Nc1cccc(F)c1)C(=O)c1ccc2c(c1)OCCO2 |  | inconclusive: 13 µM [activator, partial curve]
21 | COCCN1CCN(c2c(C)c(C)nc3cc(-c4cccc(OC)c4)nn23)CC1 | inactive: 13% | 
22 | COC(=O)c1cc2sccc2n1Cc1nc(-c2ccc(Cl)cc2)oc1C |  | inconclusive: 1.16 µM [activator, full curve, poor fit]

Row | SMILES | activity change, negative = inhibition | Potency
23 | Cc1cc(C)n(C(C)CC(=O)NCc2ccc(N(C)C)cc2)n1 (centres undefined) | inactive: 3.5% | 
24 | COc1ccc(NS(=O)(=O)c2ccc(NC(C)=O)cc2)cc1OC |  | inconclusive: 18.4 µM [falling, partial curve]
25 | Cc1ccc(SC/C(O)=C(\C#N)c2nc3ccccc3s2)cc1 |  | inconclusive: 29.1 µM [falling, single point]
26 | CCOC(=O)c1c(-c2cccs2)csc1NC(=O)CN(CC)CC |  | active: 18.4 µM
27 | CCC(=O)N/N=C/c1ccc(-c2ccc(Cl)cc2)o1 |  | inconclusive: 25.9 µM [activator, single point]
28 | Cc1oc2ncn(C)c(=O)c2c1C(=O)NCCCN1CCCC(C)C1 (centres undefined) |  | inconclusive: 0.164 µM [activator, full curve, poor fit]
29 | O=C(O)CC/C(=N\NC(=O)CNC(=O)c1cccc(Cl)c1)c1ccccc1 |  | inconclusive: 23.1 µM [activator, partial curve, poor fit]
30 | COc1ccccc1N1CCN(S(=O)(=O)c2ccc(NC(C)=O)cc2)CC1 |  | inconclusive: 20.6 µM [falling, partial curve, poor fit]
31 | COc1ccc(-c2ccc(SCC(=O)NC3CCCCC3)nn2)cc1 |  | inconclusive: 29.1 µM [activator, single point]
32 | Cc1cc(C)c(C#N)c(Oc2ccc(F)cc2)n1 |  | inconclusive: 13 µM [activator, partial curve, poor fit]
33 | O=C(NC(C(=O)N/N=C/c1cccc2ccccc12)c1n[nH]c(=O)c2ccccc12)c1ccccc1 (centres undefined) |  | inconclusive: 16.4 µM [falling, single point]
34 | CCc1ccc(NC(=O)NCc2ccccn2)cc1 |  | inconclusive: 18.4 µM [activator, single point]
35 | Cc1ccc(S(=O)(=O)N2CCOC2CNC(=O)C(=O)NCCCc2ccccc2)cc1 (centres undefined) |  | active: 20.6 µM
36 | O=C(CSc1nnc(NC(=O)c2ccc(F)cc2)s1)NCc1ccco1 |  | inconclusive: 6.51 µM [activator, partial curve]
37 | COc1ccc(-n2ncc(C(=O)N3CCc4ccccc4C3)c2C2CCN(C(=O)OC(C)(C)C)CC2)cc1 |  | inconclusive: 1.46 µM [activator, full curve]
38 | COC(=O)c1c(NC(=O)Cc2cccs2)sc2c1CCC(C)C2 (centres undefined) |  | inconclusive: 29.1 µM [activator, single point]
39 | CC1CCCCC12NC(=O)N(CC(=O)NNC(=O)c1ccc(Br)cc1)C2=O (centres undefined) | inactive: -5.38% | 
40 | Cc1ccc(C(=O)N2CCCC(C(=O)c3ccc(Oc4ccccc4)cc3)C2)cn1 (centres undefined) |  | active: 16.4 µM
41 | CCCCN(C(=O)c1ccc(-c2ccc(Cl)cc2)o1)c1c(N)n(CCCC)c(=O)[nH]c1=O |  | inconclusive: 29.1 µM [falling, single point]
42 | COc1ccc2[nH]cc(C(=O)CCl)c2c1 |  | inconclusive: 20.6 µM [falling, partial curve, poor fit]
43 | CC(=O)c1sc(NC(=O)c2cc(-c3ccccc3)nn2-c2ccccc2)nc1C |  | inconclusive: 5.8 µM [falling, partial curve]
44 | Cc1cc(NC(=O)CSc2nc(C(C)(C)C)nc3ccccc23)no1 | inactive: 0.615% | 

Row | SMILES | activity change, negative = inhibition | Potency
45 | CCc1ccc2oc(C(=O)Nc3nonc3CC)c(C)c2c1 |  | inconclusive: 0.651 µM [activator, partial curve, poor fit]
46 | CCc1cc2cc(C)ccc2nc1SCC(=O)N1CC(=O)Nc2ccccc21 |  | inconclusive: 3.26 µM [falling, partial curve]
47 | CSc1ccc2c(c1)C(N1CCN(C)CC1)Cc1ccccc1S2 (centres undefined) |  | inconclusive: 8.2 µM [falling, partial curve, poor fit]
48 | Cc1ccc(S(=O)(=O)N2[C@@H](c3ccc(C(C)(C)C)cc3)C(C(=O)O)=CC[C@H]2c2cccc(Cl)c2)cc1 |  | inconclusive: 29.1 µM [falling, single point]
49 | Cc1ccc(Nc2cc(C)nc3ccc(C)cc23)cc1 |  | inconclusive: 0.82 µM [falling, full curve, poor fit]
50 | COc1ccc(NC(=O)c2cc(S(=O)(=O)N3CCc4ccccc43)cn2C)c(OC)c1 |  | inconclusive: 32.6 µM [falling, single point]
51 | COc1cccc(N2CCN(c3ccc([N+](=O)[O-])cn3)CC2)c1 |  | inconclusive: 7.31 µM [falling, partial curve, poor fit]
52 | COc1ccc(CCNC(=O)C2CCCN(c3nc4c(C)cc(C)cc4s3)C2)cc1OC (centres undefined) |  | inconclusive: 3.26 µM [activator, full curve, poor fit]
53 | COc1ccc(CC(=O)O/N=C(\N)c2ccc(Br)cc2)cc1OC |  | inconclusive: 20.6 µM [falling, single point]
54 | S=c1[nH]nc(-c2cc(-c3ccccc3)n[nH]2)n1/N=C/c1c(Cl)cccc1Cl |  | inconclusive: 29.1 µM [falling, partial curve, poor fit]
55 | CCCCN1C(=O)/C(=C/C=C2/CC(C)(C)CN2C)SC1=S |  | inconclusive: 9.2 µM [activator, partial curve, poor fit]
56 | CCc1cc(C(=O)N2CCN(c3ccccn3)CC2)sc1C |  | inconclusive: 23.1 µM [falling, partial curve, poor fit]
57 | COCCNC(=O)Cc1c(C)c2c(cc(C)c3c(C(C)(C)C)coc32)oc1=O | inactive: 3.05% | 
58 | O=C(Nc1ccc(OC(F)F)c(Cl)c1)Nc1ccc2c(c1)OCO2 |  | inconclusive: 20.6 µM [falling, single point]
59 | S=c1[nH]nc(-c2ccccc2)c2ccccc12 |  | inconclusive: 2.91 µM [activator, partial curve, poor fit]
60 | COc1ccccc1C(=O)Nc1ccc(S(=O)(=O)Nc2cnc3ccccc3n2)cc1 |  | inconclusive: 14.6 µM [falling, partial curve, poor fit]
61 | O=C(O)CCC(=O)Nc1ccc(-c2nnc(-c3ccco3)o2)cc1 | inactive: 12.8% | 
62 | CCOC(=O)c1ccccc1NC(=O)CSc1ccc(-c2ccccn2)nn1 |  | inconclusive: 29.1 µM [falling, single point]
63 | Cc1cccc(C)c1NC(=O)CNC(=O)C(C)N1CCN(c2cccc(Cl)c2)CC1 (centres undefined) | inactive: 0.309% | 
64 | C#CCOCCOCCOCCNc1nc(N2CCN(C(=O)[C@H](CCCCN)n3cc(CN)nn3)CC2)nc(N2CCN(C(=O)[C@H](CCCCN)n3cc([C@@H](N)[C@H](C)CC)nn3)CC2)n1 | inactive: 11.5% | 

Pulled one by one from the entries so far (five):
Row | SMILES | activity change, negative = inhibition | Potency
64 | C#CCOCCOCCOCCNc1nc(N2CCN(C(=O)[C@H](CCCCN)n3cc(CN)nn3)CC2)nc(N2CCN(C(=O)[C@H](CCCCN)n3cc([C@@H](N)[C@H](C)CC)nn3)CC2)n1 | inactive: 11.5% | 
51 | COc1cccc(N2CCN(c3ccc([N+](=O)[O-])cn3)CC2)c1 |  | inconclusive: 7.31 µM [falling, partial curve, poor fit]
54 | S=c1[nH]nc(-c2cc(-c3ccccc3)n[nH]2)n1/N=C/c1c(Cl)cccc1Cl |  | inconclusive: 29.1 µM [falling, partial curve, poor fit]
57 | COCCNC(=O)Cc1c(C)c2c(cc(C)c3c(C(C)(C)C)coc32)oc1=O | inactive: 3.05% | 
49 | Cc1ccc(Nc2cc(C)nc3ccc(C)cc23)cc1 |  | inconclusive: 0.82 µM [falling, full curve, poor fit]
